Assay results: the supplement of paper PMC10849652
The list shows a part of the results.

Protein sequences, listed by entry. Tags and fused reporters are not part of them. Lines headed by an entry give the natural chain unless they say otherwise; changes in a name come on top.
UniProt O60907: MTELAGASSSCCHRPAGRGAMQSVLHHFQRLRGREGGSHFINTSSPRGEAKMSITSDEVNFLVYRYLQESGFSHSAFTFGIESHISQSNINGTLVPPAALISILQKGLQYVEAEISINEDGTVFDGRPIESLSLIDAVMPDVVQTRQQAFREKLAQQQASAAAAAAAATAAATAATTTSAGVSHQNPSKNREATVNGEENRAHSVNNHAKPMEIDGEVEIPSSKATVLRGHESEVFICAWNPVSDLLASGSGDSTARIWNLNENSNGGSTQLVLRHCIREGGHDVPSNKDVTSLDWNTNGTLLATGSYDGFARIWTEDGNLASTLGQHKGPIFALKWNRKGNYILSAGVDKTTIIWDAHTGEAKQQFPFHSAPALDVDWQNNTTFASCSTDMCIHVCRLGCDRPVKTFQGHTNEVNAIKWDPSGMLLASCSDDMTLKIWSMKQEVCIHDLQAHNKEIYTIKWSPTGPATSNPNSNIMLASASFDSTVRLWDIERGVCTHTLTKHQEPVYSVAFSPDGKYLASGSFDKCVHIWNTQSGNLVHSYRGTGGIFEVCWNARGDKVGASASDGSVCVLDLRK
UniProt Q13488, whole entry, looked up: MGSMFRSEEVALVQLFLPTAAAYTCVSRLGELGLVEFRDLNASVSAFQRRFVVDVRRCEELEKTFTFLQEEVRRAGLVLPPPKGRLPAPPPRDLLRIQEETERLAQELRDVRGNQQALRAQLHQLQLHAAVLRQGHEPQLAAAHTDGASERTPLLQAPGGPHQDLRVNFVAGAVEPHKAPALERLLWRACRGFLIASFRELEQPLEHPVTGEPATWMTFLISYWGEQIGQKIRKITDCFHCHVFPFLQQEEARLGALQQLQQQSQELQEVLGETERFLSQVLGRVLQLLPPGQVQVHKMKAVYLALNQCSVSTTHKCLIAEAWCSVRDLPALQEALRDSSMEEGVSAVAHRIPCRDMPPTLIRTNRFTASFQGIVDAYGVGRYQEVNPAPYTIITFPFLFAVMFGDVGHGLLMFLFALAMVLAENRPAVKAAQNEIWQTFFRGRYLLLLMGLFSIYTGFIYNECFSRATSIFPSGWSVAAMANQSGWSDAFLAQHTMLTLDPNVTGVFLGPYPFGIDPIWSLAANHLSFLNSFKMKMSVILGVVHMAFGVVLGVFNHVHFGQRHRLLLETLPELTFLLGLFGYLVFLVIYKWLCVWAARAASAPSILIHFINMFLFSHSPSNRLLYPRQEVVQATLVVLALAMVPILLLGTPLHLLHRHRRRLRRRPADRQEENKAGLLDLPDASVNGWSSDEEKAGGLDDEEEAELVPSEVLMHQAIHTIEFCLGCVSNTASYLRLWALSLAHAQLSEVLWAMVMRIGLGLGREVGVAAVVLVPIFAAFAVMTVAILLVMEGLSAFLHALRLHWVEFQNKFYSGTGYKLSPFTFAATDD
UniProt Q9P2M4: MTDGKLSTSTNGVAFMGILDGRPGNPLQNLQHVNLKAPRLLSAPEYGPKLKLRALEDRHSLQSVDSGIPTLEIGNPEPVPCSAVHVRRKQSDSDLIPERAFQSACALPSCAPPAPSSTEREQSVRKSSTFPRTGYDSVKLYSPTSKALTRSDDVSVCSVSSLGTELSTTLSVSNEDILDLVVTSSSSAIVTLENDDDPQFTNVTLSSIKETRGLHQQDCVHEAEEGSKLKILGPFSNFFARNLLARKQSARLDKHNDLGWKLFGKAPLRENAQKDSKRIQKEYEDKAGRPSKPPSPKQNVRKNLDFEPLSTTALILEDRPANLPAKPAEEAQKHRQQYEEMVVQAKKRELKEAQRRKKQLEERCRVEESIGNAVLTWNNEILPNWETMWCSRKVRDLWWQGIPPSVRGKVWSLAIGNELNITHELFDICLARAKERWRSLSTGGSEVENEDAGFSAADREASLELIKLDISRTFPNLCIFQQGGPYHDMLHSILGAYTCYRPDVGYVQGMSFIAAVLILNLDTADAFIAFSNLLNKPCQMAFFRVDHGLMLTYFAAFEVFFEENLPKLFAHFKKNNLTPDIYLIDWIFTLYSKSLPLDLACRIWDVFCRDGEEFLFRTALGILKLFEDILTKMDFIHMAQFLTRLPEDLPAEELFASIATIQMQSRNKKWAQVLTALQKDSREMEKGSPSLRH
UniProt Q8WUA7: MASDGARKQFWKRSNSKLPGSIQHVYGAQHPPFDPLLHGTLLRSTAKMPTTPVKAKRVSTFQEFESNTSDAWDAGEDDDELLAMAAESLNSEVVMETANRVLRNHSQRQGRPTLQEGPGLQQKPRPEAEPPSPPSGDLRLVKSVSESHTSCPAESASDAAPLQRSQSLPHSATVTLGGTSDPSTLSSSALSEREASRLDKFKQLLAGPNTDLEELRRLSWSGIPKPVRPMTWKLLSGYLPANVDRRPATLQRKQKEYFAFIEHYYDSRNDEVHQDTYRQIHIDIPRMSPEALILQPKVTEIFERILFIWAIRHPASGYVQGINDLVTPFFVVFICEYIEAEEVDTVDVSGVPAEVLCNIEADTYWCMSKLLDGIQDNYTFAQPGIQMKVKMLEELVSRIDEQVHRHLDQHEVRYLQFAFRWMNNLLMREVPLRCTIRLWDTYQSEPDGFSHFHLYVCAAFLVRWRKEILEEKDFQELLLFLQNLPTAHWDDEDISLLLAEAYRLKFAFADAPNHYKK
UniProt P20226, whole entry, looked up: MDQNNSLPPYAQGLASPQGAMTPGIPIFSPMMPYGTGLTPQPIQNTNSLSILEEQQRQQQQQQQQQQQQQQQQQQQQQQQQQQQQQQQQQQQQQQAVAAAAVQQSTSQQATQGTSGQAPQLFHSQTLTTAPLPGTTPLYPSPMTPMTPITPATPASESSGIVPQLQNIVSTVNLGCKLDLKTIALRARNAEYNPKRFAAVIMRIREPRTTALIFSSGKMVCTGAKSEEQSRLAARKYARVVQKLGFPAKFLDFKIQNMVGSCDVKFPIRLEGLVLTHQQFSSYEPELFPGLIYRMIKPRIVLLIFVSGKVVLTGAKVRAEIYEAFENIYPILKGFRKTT
UniProt P02787, whole entry, looked up: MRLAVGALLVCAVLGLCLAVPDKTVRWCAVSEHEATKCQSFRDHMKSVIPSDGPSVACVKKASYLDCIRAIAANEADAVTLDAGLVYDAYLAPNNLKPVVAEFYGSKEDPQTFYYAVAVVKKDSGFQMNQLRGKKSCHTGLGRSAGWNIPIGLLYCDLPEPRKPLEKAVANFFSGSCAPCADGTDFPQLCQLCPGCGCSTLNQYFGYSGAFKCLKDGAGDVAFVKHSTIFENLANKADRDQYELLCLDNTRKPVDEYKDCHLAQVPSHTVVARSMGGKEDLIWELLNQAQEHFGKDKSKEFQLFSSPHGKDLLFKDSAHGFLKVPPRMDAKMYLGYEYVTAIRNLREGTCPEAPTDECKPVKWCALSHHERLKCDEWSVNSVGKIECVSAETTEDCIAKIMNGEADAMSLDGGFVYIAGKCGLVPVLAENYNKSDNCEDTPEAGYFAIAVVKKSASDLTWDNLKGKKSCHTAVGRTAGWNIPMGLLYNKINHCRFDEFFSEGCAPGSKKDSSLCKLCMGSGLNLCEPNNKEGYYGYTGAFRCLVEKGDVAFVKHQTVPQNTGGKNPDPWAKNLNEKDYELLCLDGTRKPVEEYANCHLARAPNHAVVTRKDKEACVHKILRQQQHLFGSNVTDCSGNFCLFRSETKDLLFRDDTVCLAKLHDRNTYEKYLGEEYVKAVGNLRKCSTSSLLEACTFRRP
UniProt Q9NXF1: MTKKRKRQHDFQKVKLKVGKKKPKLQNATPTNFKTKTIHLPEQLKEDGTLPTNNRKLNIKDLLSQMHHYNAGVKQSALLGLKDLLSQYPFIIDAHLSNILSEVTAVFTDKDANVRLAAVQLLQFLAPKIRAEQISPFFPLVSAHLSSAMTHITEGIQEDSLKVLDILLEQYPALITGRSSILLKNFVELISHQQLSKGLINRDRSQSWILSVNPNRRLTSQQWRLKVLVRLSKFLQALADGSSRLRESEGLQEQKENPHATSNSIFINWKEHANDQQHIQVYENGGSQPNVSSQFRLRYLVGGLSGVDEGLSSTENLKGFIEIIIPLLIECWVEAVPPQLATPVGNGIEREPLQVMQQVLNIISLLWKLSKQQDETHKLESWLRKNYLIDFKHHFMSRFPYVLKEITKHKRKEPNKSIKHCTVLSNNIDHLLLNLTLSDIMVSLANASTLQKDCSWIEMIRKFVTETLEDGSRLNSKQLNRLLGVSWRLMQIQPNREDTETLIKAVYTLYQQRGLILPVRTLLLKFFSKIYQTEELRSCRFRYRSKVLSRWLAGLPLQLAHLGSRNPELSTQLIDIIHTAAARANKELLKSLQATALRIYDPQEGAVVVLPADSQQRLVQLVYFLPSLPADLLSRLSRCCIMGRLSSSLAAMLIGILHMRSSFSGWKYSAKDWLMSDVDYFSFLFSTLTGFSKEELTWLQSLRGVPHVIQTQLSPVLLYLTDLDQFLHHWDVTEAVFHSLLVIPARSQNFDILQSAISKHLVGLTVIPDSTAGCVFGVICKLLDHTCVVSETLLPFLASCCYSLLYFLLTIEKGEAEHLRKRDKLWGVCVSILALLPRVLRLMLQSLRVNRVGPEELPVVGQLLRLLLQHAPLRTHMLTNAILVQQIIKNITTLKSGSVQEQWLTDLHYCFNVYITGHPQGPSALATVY
UniProt Q9NUW8, whole entry, looked up: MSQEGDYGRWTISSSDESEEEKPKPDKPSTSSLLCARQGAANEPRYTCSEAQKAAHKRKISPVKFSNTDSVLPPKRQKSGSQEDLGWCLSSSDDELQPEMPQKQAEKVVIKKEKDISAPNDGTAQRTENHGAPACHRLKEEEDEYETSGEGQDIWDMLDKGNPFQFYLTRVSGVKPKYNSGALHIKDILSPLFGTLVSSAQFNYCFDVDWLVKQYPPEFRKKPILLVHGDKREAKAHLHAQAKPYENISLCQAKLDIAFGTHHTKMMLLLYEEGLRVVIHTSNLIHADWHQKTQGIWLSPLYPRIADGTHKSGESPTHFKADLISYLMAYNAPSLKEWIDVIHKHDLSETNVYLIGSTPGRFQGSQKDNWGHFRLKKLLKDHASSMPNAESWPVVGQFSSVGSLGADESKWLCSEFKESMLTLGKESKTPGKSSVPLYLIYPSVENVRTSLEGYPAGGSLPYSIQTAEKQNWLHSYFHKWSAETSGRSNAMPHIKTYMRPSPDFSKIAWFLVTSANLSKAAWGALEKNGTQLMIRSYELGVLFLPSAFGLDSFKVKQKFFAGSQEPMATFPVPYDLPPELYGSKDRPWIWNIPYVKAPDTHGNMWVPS
UniProt Q6P1N9: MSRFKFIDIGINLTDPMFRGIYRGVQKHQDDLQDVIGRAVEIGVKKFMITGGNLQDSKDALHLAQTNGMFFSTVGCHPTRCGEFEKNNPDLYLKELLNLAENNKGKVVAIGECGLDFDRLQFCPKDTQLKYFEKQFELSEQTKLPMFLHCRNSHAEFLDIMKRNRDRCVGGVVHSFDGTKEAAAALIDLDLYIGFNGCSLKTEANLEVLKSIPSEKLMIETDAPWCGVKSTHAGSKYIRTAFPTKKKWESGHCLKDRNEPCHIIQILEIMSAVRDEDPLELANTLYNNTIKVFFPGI
UniProt O14776: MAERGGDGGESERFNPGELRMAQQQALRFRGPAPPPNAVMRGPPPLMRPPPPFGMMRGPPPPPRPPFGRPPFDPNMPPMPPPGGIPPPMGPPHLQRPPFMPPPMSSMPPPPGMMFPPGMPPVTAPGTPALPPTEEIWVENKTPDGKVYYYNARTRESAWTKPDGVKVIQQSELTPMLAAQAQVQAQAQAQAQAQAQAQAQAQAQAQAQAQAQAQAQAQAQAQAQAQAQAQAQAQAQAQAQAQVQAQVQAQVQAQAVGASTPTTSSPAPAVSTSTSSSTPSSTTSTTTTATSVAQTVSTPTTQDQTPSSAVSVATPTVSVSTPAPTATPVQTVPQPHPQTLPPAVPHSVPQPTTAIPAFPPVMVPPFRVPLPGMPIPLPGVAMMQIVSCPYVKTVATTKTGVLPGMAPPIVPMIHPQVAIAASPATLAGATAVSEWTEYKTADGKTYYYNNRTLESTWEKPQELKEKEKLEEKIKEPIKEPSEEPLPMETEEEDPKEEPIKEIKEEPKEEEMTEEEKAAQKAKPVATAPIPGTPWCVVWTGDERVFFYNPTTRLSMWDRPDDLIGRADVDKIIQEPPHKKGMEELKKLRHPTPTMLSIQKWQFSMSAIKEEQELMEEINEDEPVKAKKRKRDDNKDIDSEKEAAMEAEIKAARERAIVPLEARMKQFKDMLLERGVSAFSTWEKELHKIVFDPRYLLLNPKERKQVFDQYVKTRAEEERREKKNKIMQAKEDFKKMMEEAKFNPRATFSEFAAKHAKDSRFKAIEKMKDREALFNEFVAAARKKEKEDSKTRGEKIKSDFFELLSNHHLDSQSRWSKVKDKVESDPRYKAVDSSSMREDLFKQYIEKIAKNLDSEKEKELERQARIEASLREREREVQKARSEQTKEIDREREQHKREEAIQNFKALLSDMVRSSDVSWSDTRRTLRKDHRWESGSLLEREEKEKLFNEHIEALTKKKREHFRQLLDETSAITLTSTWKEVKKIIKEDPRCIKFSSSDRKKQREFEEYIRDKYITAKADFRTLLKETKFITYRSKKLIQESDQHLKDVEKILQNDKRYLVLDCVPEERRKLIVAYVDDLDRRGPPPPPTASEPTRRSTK

Assays:
Assay in all cases: log2 fold change, soluble protein after heating vs DMSO (PISA); higher = thermal stabilisation; K562 lysate, 10 uM; active = over 0.2 and 3.5 SD of the protein, either way, in both replicates (recomputed)
ibrutinib = compound: C=CC(=O)N1CCC[C@@H](n2nc(-c3ccc(Oc4ccccc4)cc3)c3c(N)ncnc32)C1 [ibrutinib]
How it was run: (§1)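 K562 pellets were dounce-homogenised in PBS pH 7.4 containing 1 mM MgCl2, and the crude extract, at 1 mg/mL protein, was exposed to 10 μM compound for 30 min. Aliquots were heated for 3 min across 48°C-58°C, pooled, brought to 0.5% NP-40 at 4°C and spun at 21,000xg for 90 min, with the supernatant taken as soluble protein. TMTpro 16plex LC-MS/MS with equalised channel sums quantified that protein. Values are log-two fold changes in thermal stability relative to solvent controls, taken from duplicates.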

[1] = compound: CC(=O)c1cnc2ccc(-c3cc(Cl)c(O)c(Cl)c3)nc2c1N[C@H]1CC[C@H](CN(C)C)CC1
How it was run: as §1

ralimetinib = compound: CC(C)(C)Cn1c(N)nc2ccc(-c3[nH]c(C(C)(C)C)nc3-c3ccc(F)cc3)nc21 [ralimetinib]
How it was run: as §1

[2] = compound: CC(C)(O)CC(=O)NCCn1ccc2ncnc(Nc3ccc(Oc4cccc(C(F)(F)F)c4)c(Cl)c3)c21
How it was run: as §1

[3] = compound: CC(C)C1=C2N=C(C=C(N2N=C1)NCC3=CC=CC=C3)NCCCCCCN
How it was run: as §1

[4] = compound: CC1=C(C(CC(=O)N1)C2=CC=C(C=C2)C(F)(F)F)C(=O)NC3=C(C=C4C(=C3)C=NN4)F
How it was run: as §1

[5] = compound: CC1=C(C2=C(C=C1)C(=O)C3=CC=CC=C3N2CCCN)C
How it was run: as §1

[6] = compound: CC1=C(C=C(C=C1)NC(=O)C2=CC(=CC=C2)C(C)(C)C#N)NC3=CC4=C(C=C3)N=CN(C4=O)C
How it was run: as §1

[7] = compound: CC1=C(C=C(C=C1)NC(=O)C2=CC(=CC=C2)N(C)C)NC(=O)C3=CC=C(C=C3)O
How it was run: as §1

[8] = compound: CC1=CC=C(C=C1)SC2=C3C=C(SC3=CN=C2)C(=O)N
How it was run: as §1

vemurafenib = compound: CCCS(=O)(=O)Nc1ccc(F)c(C(=O)c2c[nH]c3ncc(-c4ccc(Cl)cc4)cc23)c1F [vemurafenib]
How it was run: as §1

[9] = compound: CCCS(=O)(=O)Nc1ccc(F)c(C(=O)c2c[nH]c3ncc(Cl)cc23)c1F
How it was run: as §1

barasertib = compound: CCN(CCCOc1ccc2c(Nc3cc(CC(=O)Nc4cccc(F)c4)[nH]n3)ncnc2c1)CCOP(=O)(O)O [barasertib]
How it was run: as §1

[10] = compound: CC[C@@H]1C(=O)N(C)c2cnc(Nc3ccc(C(=O)NC4CCN(C)CC4)cc3OC)nc2N1C1CCCC1
How it was run: as §1

volasertib = compound: CC[C@@H]1C(=O)N(C)c2cnc(Nc3ccc(C(=O)N[C@H]4CC[C@H](N5CCN(CC6CC6)CC5)CC4)cc3OC)nc2N1C(C)C [volasertib]
How it was run: as §1

[11] = compound: CCn1c(C(=O)N(C2CC2)C2CC2)cc2c3c(ncn3C)c(Nc3cc(C)n(C)n3)nc21
How it was run: as §1

[12] = compound: CCn1cc(-c2ccnc3[nH]c(-c4cccc(CN(C)C)c4)cc23)c(-c2ccc(NC(=O)N(C)C)cc2)n1
How it was run: as §1

[13] = compound: CN1CCC(CNc2ccc3ncc(-c4cccc(OC(F)(F)F)c4)n3n2)CC1
How it was run: as §1

saracatinib = compound: CN1CCN(CCOc2cc(OC3CCOCC3)c3c(Nc4c(Cl)ccc5c4OCO5)ncnc3c2)CC1 [saracatinib]
How it was run: as §1

sotrastaurin = compound: CN1CCN(c2nc(C3=C(c4c[nH]c5ccccc45)C(=O)NC3=O)c3ccccc3n2)CC1 [sotrastaurin]
How it was run: as §1

Measured: log2 fold change

TAMM41 isoform 3 (UniProt Q96BW9)
inactive: ibrutinib 0.118 | [1] 0.022 | ralimetinib 0.026 | [2] -0.025 | [3] -0.075 | [4] -0.031 | [5] -0.002 | [6] -0.074 | [7] 0.001 | [8] 0.056 | vemurafenib -0.034 | [9] 0.103 | barasertib -0.121 | [10] -0.016 | volasertib -0.092 | [11] 0.069 | [12] 0.064 | [13] -0.009 | saracatinib 0.029 | sotrastaurin 0.009

TBL1X (UniProt O60907)
inactive: ibrutinib 0.052 | [1] 0.035 | ralimetinib 0.045 | [2] 0.036 | [3] 0.001 | [4] 0.018 | [5] 0.075 | [6] -0.066 | [7] 0.016 | [8] -0.004 | vemurafenib -0.004 | [9] -0.006 | barasertib 0.012 | [10] 0.016 | volasertib 0.021 | [11] 0.068 | [12] -0.085 | [13] 0.11 | saracatinib 0 | sotrastaurin 0.017

TCIRG1 (UniProt Q13488)
inactive: ibrutinib -0.02 | [1] -0.038 | ralimetinib 0.012 | [2] -0.152 | [3] 0.024 | [4] 0.01 | [5] 0.041 | [6] -0.051 | [7] -0.185 | [8] -0.007 | vemurafenib -0.004 | [9] -0.045 | barasertib 0.071 | [10] -0.059 | volasertib 0.041 | [11] 0.088 | [12] -0.027 | [13] 0.048 | saracatinib 0.087 | sotrastaurin 0.02

TBC1D14 (UniProt Q9P2M4)
inactive: ibrutinib -0.077 | [1] -0.011 | ralimetinib 0.064 | [2] 0.044 | [3] -0.119 | [4] 0.093 | [5] 0.171 | [6] 0.006 | [7] 0.017 | [8] -0.053 | vemurafenib 0.011 | [9] 0.014 | barasertib -0.222 | [10] -0.115 | volasertib -0.022 | [11] 0.063 | [12] -0.026 | [13] -0.058 | saracatinib 0.031 | sotrastaurin 0.01

TBC1D5 isoform 2 (UniProt Q92609)
inactive: ibrutinib -0.023 | [1] -0.01 | ralimetinib 0.019 | [2] 0.015 | [3] -0.026 | [4] 0.012 | [5] 0.004 | [6] 0.035 | [7] 0.004 | [8] -0.027 | vemurafenib 0.003 | [9] 0.011 | barasertib 0.023 | [10] 0.002 | volasertib -0.061 | [11] 0 | [12] -0.002 | [13] -0.043 | saracatinib -0.002 | sotrastaurin 0.006

TFCP2 (UniProt Q12800)
inactive: ibrutinib -0.055 | [1] 0.054 | ralimetinib 0.032 | [2] -0.028 | [3] 0.051 | [4] -0.026 | [5] 0 | [6] 0.059 | [7] -0.02 | [8] 0.026 | vemurafenib 0.023 | [9] 0.049 | barasertib 0.007 | [10] -0.064 | volasertib -0.064 | [11] 0.045 | [12] -0.042 | [13] -0.083 | saracatinib 0.022 | sotrastaurin -0.006

TBC1D22A (UniProt Q8WUA7)
inactive: ibrutinib -0.036 | [1] -0.013 | ralimetinib 0.059 | [2] 0.001 | [3] 0.03 | [4] -0.007 | [5] -0.003 | [6] -0.014 | [7] -0.017 | [8] -0.032 | vemurafenib -0.051 | [9] 0.028 | barasertib 0.045 | [10] -0.016 | volasertib 0.043 | [11] -0.002 | [12] 0.007 | [13] 0.082 | saracatinib -0.006 | sotrastaurin 0.014

Pulled one by one from the entries so far, 2 records:
TCIRG1 (UniProt Q13488)
inactive: ibrutinib -0.02 | [1] -0.038 | ralimetinib 0.012 | [2] -0.152 | [3] 0.024 | [4] 0.01 | [5] 0.041 | [6] -0.051 | [7] -0.185 | [8] -0.007 | vemurafenib -0.004 | [9] -0.045 | barasertib 0.071 | [10] -0.059 | volasertib 0.041 | [11] 0.088 | [12] -0.027 | [13] 0.048 | saracatinib 0.087 | sotrastaurin 0.02

TBL1X (UniProt O60907)
inactive: ibrutinib 0.052 | [1] 0.035 | ralimetinib 0.045 | [2] 0.036 | [3] 0.001 | [4] 0.018 | [5] 0.075 | [6] -0.066 | [7] 0.016 | [8] -0.004 | vemurafenib -0.004 | [9] -0.006 | barasertib 0.012 | [10] 0.016 | volasertib 0.021 | [11] 0.068 | [12] -0.085 | [13] 0.11 | saracatinib 0 | sotrastaurin 0.017

Remaining list, next part.

TBP (UniProt P20226)
inactive: ibrutinib 0.051 | [1] 0.001 | ralimetinib 0.033 | [2] -0.103 | [3] -0.006 | [4] 0.594 | [5] -0.081 | [6] 0.028 | [7] -0.018 | [8] 0.031 | [9] 0.005 | barasertib 0.006 | [10] 0.021 | volasertib 0 | [11] -0.114 | [12] -0.078 | [13] 0.084 | saracatinib 0.038 | sotrastaurin 0.046

TASP1 (UniProt Q9H6P5)
inactive: ibrutinib 0.005 | [1] 0.04 | ralimetinib -0.073 | [2] -0.062 | [3] 0.028 | [4] 0.089 | [5] -0.114 | [6] 0.009 | [7] -0.012 | [8] 0.067 | [9] 0.028 | barasertib 0.13 | [10] -0.082 | volasertib -0.02 | [11] -0.047 | saracatinib -0.082 | sotrastaurin 0.02

TF (UniProt P02787)
inactive: ibrutinib -0.031 | [1] -0.034 | ralimetinib 0.022 | [2] -0.059 | [3] 0.063 | [4] 0.182 | [5] 0.105 | [6] -0.095 | [7] 0.014 | [8] 0.008 | vemurafenib 0.055 | [9] -0.037 | barasertib -0.04 | [10] 0.065 | volasertib 0.041 | [11] 0.004 | [12] -0.128 | [13] 0.095 | saracatinib -0.105 | sotrastaurin 0.114

TBRG4 (UniProt Q969Z0)
inactive: ibrutinib 0.014 | [1] 0.025 | ralimetinib 0.002 | [2] -0.023 | [3] -0.011 | [4] 0.001 | [5] 0.062 | [6] -0.041 | [7] 0.044 | [8] -0.023 | vemurafenib -0.016 | [9] 0.008 | barasertib 0.051 | [10] -0.075 | volasertib -0.079 | [11] 0.048 | [12] 0.052 | [13] -0.128 | saracatinib 0.026 | sotrastaurin 0.013

TEX10 (UniProt Q9NXF1)
inactive: ibrutinib 0.072 | [1] -0.012 | ralimetinib 0 | [2] -0.151 | [3] -0.03 | [4] 0.057 | [5] -0.19 | [6] -0.057 | [7] 0.018 | [8] 0.013 | vemurafenib 0.034 | [9] 0.031 | barasertib -0.117 | [10] 0.004 | volasertib -0.031 | [11] -0.014 | [12] -0.019 | [13] 0.016 | saracatinib -0.022 | sotrastaurin 0.042

TENT5C (UniProt Q5VWP2)
inactive: ibrutinib 0.059 | [1] -0.111 | ralimetinib -0.017 | [2] -0.03 | [3] 0.015 | [4] -0.021 | [6] 0.049 | [7] -0.029 | [8] -0.076 | vemurafenib 0.055 | [9] 0.055 | barasertib 0.148 | [10] -0.028 | volasertib 0.104 | [11] -0.008 | [12] 0.021 | [13] 0.03 | sotrastaurin -0.015

TDP1 (UniProt Q9NUW8)
inactive: ibrutinib 0.077 | [1] 0.03 | ralimetinib -0.118 | [2] -0.012 | [3] -0.031 | [4] 0.012 | [5] -0.078 | [6] -0.019 | [7] -0.01 | [8] -0.017 | vemurafenib -0.026 | [9] -0.015 | barasertib -0.01 | [10] -0.07 | volasertib -0.033 | [11] 0.004 | [12] -0.099 | [13] 0.041 | saracatinib 0.015 | sotrastaurin 0.046

TATDN1 (UniProt Q6P1N9)
inactive: ibrutinib -0.009 | [1] -0.019 | ralimetinib -0.003 | [2] 0.019 | [3] 0.002 | [4] -0.034 | [5] -0.003 | [6] 0.004 | [7] 0.027 | [8] -0.016 | vemurafenib 0.019 | [9] -0.015 | barasertib -0.019 | [10] 0.025 | volasertib 0.022 | [11] 0.018 | [12] -0.037 | [13] 0.04 | saracatinib -0.015 | sotrastaurin 0.009

TCERG1 (UniProt O14776)
inactive: ibrutinib 0.013 | [1] 0.009 | ralimetinib 0.018 | [2] -0.008 | [3] -0.004 | [4] 0.005 | [5] 0.039 | [6] -0.074 | [7] 0.009 | [8] 0.015 | vemurafenib -0.037 | [9] 0.015 | barasertib 0.012 | [10] 0.016 | volasertib -0.02 | [11] 0.03 | [12] -0.052 | [13] 0.044 | saracatinib 0.03 | sotrastaurin -0.019
